In patent US20200308281A1 (KITE PHARMA, published 2020):
These are yes or no findings as the source states them, for the method shown. Some binding calls cover weakened binding; strength is not graded here.

Target: T1, peptide immunogen … (murine)
T1 sequence (peptide): ATYPSSDVPSDATLT
Experiment: ELISA, peptide coated on the plate at 1 ug/ml

B1: KIP-8 antibody (mAb clone 39; Clone 39-4) (antibody, V domains shown)
VH: QEQLVESGGGLVQPEGSLTLTCTASGFDLGNNWIHWVRHAPGKGLEWIACVSGSSGNIYYATWAKGRFTMSKASSTTVTLRMTSLTAADTATYFCARGWNLWGPGTLVTVSS
VL: AQVLTQTPASVSAAVGGTVTINCQASQSVYSSNLLTWYQKKPGQPPKLLIYEASKLPSGIPSRFSGSGSGTQFTLTISDVQCADAATYYCLGIYDCVLADCQAFGGGTEVVVKG
notes: Rabbit monoclonal antibody; also called clone 39 (KIP-8); Clone 39-4 vh1
binding: binds
